Experimental data: the supplement of paper PMC10849652
This is one part of the list.

By UniProt entry, the sequences of proteins in these tests, tags left out. Where a name states a change or a piece, a line headed by the entry shows the natural chain unless it says otherwise.
UniProt Q8IWB9: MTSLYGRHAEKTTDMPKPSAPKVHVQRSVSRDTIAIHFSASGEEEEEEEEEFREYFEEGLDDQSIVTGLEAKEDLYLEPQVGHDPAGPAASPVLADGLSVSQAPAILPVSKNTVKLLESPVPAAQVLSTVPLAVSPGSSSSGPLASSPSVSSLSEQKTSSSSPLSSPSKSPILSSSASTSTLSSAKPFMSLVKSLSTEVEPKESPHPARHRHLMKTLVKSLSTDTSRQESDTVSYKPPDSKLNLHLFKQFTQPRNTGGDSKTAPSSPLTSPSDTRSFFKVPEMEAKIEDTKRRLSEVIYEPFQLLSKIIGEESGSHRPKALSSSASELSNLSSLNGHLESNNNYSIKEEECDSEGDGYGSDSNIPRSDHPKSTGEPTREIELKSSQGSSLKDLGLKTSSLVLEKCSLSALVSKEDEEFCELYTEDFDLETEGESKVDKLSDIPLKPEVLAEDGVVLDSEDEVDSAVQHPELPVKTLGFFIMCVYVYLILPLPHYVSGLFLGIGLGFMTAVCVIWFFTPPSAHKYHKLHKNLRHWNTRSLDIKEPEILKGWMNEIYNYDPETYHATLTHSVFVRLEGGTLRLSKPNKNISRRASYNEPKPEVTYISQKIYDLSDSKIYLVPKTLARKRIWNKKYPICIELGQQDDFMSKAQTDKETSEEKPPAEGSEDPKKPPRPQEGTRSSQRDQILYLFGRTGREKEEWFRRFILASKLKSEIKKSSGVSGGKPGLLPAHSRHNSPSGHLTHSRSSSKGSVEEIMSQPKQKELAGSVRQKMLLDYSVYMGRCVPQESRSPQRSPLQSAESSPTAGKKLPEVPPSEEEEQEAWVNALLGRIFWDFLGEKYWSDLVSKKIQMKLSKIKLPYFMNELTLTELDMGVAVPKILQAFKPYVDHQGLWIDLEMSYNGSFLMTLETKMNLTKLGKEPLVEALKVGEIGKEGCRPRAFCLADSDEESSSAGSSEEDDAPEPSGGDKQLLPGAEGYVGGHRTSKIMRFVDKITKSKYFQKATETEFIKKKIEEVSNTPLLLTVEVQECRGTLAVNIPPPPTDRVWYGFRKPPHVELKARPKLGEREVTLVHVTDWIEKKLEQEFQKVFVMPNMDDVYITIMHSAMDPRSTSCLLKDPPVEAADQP
UniProt Q8NHU6: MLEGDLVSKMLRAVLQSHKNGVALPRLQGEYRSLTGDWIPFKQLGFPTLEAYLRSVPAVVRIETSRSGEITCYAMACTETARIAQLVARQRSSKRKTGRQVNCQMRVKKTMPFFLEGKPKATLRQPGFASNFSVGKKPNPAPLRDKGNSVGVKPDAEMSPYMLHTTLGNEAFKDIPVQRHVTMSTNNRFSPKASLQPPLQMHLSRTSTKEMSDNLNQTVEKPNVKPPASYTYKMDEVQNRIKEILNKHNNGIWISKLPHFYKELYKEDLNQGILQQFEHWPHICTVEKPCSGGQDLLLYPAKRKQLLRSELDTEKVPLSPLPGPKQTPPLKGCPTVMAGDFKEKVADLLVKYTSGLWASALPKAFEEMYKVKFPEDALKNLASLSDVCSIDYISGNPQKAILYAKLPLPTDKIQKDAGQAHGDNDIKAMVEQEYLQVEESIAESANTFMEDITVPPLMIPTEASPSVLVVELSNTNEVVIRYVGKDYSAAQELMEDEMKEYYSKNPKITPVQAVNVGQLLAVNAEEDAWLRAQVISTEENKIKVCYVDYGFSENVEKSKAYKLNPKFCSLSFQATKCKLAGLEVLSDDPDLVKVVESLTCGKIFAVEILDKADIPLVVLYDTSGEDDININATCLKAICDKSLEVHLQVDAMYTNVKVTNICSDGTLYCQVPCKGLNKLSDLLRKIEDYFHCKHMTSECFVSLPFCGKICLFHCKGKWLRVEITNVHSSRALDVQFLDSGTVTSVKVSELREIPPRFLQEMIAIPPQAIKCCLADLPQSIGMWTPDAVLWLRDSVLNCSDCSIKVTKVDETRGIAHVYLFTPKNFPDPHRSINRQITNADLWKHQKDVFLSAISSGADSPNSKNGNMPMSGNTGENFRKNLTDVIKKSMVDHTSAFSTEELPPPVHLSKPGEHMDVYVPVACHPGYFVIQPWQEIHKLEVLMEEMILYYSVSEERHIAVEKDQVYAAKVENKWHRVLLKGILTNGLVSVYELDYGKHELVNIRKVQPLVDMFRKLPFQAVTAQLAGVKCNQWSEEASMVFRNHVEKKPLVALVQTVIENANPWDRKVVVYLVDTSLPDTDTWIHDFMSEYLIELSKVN
UniProt Q5JUR7: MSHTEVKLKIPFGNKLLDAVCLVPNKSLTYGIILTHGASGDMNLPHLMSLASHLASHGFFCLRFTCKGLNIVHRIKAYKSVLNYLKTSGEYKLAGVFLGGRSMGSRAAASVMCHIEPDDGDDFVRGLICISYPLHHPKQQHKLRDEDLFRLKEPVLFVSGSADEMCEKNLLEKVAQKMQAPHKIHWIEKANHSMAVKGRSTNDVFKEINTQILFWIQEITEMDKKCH
UniProt O95455: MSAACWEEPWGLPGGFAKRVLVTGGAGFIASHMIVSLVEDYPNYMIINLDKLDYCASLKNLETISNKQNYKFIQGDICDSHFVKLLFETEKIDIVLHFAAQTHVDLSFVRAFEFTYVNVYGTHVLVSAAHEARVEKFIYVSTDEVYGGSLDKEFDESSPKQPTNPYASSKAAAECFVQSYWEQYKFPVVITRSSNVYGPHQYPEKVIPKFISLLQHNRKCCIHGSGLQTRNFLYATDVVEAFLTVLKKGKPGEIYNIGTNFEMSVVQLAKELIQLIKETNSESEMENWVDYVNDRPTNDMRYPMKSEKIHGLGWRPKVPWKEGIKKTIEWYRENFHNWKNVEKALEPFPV
UniProt B5MCY1: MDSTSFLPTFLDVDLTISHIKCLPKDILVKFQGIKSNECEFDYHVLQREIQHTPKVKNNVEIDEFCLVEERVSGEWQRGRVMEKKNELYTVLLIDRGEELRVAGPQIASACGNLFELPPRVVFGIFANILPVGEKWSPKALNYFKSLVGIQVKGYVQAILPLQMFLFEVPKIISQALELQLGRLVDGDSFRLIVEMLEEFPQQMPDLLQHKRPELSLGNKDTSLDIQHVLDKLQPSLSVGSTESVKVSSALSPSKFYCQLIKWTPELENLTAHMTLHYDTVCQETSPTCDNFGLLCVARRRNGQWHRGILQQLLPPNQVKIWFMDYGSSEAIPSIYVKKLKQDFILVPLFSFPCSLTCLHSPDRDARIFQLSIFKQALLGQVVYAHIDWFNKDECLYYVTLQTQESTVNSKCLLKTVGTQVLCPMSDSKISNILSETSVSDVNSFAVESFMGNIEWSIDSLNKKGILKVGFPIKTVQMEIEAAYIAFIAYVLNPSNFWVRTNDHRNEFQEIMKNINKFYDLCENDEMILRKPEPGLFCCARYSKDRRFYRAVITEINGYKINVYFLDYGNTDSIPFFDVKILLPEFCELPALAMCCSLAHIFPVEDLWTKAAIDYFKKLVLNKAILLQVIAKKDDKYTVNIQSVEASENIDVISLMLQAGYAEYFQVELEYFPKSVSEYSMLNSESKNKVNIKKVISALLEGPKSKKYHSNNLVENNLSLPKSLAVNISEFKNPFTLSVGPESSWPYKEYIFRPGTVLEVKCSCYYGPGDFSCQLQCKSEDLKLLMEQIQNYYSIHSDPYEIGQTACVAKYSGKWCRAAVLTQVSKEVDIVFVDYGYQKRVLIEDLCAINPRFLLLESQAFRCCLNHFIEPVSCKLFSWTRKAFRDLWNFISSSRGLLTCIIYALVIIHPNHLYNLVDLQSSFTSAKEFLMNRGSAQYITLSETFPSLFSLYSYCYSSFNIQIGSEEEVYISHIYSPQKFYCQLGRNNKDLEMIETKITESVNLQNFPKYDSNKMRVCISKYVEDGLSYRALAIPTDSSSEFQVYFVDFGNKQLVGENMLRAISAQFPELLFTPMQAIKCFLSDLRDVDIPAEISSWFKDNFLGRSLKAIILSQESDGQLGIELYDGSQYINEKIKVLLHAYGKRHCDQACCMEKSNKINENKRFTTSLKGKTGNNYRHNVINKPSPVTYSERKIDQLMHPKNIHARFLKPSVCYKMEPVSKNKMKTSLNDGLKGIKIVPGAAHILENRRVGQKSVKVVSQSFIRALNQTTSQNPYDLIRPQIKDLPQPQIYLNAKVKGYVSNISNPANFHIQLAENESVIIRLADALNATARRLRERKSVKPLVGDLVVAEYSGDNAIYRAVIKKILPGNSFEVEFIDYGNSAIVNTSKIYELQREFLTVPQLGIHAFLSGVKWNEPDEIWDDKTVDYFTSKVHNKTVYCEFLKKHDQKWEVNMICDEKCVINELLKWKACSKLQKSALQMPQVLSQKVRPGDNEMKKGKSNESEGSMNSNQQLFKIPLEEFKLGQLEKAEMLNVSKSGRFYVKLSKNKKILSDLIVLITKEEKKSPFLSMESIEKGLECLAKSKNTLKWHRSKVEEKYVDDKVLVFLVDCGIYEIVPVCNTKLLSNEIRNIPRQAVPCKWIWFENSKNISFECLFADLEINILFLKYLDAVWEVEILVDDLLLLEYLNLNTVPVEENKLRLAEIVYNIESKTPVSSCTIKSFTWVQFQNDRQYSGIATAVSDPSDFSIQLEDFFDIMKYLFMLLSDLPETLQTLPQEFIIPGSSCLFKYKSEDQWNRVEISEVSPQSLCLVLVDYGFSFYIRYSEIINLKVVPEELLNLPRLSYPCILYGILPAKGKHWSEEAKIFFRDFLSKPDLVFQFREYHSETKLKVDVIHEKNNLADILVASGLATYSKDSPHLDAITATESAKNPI
UniProt Q96CG3: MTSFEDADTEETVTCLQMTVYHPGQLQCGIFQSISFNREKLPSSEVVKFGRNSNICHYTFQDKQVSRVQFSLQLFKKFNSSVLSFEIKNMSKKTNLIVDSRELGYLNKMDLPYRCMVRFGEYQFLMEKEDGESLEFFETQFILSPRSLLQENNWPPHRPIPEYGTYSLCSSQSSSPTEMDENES
UniProt P10646, whole entry, looked up: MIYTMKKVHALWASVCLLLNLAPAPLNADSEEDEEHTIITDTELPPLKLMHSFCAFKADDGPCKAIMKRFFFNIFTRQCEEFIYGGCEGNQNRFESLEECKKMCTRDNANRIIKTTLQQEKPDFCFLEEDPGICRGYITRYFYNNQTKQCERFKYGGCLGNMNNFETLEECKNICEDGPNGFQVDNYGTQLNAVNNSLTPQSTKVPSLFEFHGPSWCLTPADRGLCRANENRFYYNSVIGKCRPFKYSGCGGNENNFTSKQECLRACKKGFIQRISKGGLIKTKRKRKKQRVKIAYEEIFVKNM
UniProt Q6ZT07: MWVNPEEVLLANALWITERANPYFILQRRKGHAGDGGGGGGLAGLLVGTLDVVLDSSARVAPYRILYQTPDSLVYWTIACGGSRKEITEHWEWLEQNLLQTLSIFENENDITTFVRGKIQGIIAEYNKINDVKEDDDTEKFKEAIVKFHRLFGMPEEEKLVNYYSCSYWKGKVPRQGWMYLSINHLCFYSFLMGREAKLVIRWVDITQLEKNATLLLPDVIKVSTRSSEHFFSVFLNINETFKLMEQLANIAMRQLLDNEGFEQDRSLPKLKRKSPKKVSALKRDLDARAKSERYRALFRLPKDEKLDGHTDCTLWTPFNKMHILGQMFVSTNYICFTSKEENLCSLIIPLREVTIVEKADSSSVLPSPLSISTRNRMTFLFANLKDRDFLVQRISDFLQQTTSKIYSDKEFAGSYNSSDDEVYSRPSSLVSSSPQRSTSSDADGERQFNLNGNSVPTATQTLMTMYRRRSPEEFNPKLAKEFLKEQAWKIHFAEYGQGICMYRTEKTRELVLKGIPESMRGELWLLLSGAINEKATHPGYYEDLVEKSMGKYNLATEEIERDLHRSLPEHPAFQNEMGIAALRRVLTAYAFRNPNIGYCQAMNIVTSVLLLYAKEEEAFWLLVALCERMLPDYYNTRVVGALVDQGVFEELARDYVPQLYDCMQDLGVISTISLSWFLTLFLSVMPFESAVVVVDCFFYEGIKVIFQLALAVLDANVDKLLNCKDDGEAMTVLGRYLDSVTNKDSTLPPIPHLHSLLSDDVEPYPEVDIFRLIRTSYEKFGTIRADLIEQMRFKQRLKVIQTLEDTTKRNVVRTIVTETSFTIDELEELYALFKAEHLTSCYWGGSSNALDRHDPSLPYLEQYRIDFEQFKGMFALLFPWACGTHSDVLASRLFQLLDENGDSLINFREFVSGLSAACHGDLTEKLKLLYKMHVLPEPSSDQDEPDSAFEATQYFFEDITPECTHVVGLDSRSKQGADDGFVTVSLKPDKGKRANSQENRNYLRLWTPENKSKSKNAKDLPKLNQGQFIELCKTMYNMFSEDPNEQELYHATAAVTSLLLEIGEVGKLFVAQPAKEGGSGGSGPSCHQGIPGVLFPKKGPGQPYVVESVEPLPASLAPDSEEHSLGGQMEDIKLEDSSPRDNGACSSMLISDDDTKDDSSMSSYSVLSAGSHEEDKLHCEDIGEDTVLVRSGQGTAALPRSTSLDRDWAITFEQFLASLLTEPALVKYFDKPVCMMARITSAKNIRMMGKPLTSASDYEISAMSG

Compound: CCn1cc(-c2ccnc3[nH]c(-c4cccc(CN(C)C)c4)cc23)c(-c2ccc(NC(=O)N(C)C)cc2)n1
Assay: log2 fold change, soluble protein after heating vs DMSO (PISA); higher = thermal stabilisation; K562 cells, 10 uM, 30 min; active = over 0.2 and 3.5 SD of the protein, either way, in both replicates (recomputed)
Procedure, shortened: (§1)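 Aliquots of K562 cells (2×10^6 cells/mL) treated with 10 μM compound for 30 min were heated for 3 min over 48°C-58°C. After pooling and extraction in PBS with 0.5% NP-40 at 4°C, soluble protein from a 21,000xg, 90 min spin was quantified by TMTpro 16plex LC-MS/MS with channel sums equalised. Thermal stability is expressed against control samples, from duplicates, as a log2 fold change.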

log2 fold change, inactive:
TCEAL8 (UniProt Q8IYN2) -0.123
TK1 (UniProt K7ERV3) -0.014
TBC1D2 (UniProt Q9BYX2) 0.087
TEX10 (UniProt Q9NXF1) -0.075
TEX2 isoform 2 (UniProt Q8IWB9) -0.034
TBC1D14 (UniProt Q9P2M4) -0.077
TENM4 (UniProt Q6N022) -0.038
THAP12 (UniProt O43422) -0.275
TDRD7 (UniProt Q8NHU6) 0.054
TIGAR (UniProt Q9NQ88) 0.177
TCEAL1 isoform 2 (UniProt Q15170) 0.081
TEX30 (UniProt Q5JUR7) 0.079
TGDS (UniProt O95455) -0.426
TCF20 (UniProt Q9UGU0) -0.08
TDRD15 (UniProt B5MCY1) 0.149
TIFA (UniProt Q96CG3) 0.239
TFPI (UniProt P10646) 0.086
TCF3 isoform 2 (UniProt P15923) 0.011
TBCK (UniProt Q8TEA7) 0.182
TCF4 isoform 3 (UniProt P15884) 0.01
TCF25 (UniProt Q9BQ70) -0.125
THEMIS2 (UniProt Q5TEJ8) 0.011
TCOF1 isoform 3 (UniProt Q13428) 0.155

Compound: CN(C)CC(=O)Nc1ccc2[nH]c(=O)c3ccccc3c2c1
Assay: as above
Procedure, shortened: as §1

log2 fold change, inactive:
TK1 (UniProt K7ERV3) 0.084
TEX2 isoform 2 (UniProt Q8IWB9) 0.009
TBC1D14 (UniProt Q9P2M4) 0.118
TDRD7 (UniProt Q8NHU6) 0.104
TCEAL1 isoform 2 (UniProt Q15170) 0.069
TCOF1 isoform 6 (UniProt Q13428) -0.219
TEX30 (UniProt Q5JUR7) 0.075
TGDS (UniProt O95455) -0.267
TC2N (UniProt Q8N9U0) -0.194
TDRD3 isoform 3 (UniProt Q9H7E2) -0.012
TDRD15 (UniProt B5MCY1) -0.176
TIFA (UniProt Q96CG3) -0.156
TFPI (UniProt P10646) -0.056
TCF3 isoform 2 (UniProt P15923) 0.03
TBC1D9 (UniProt Q6ZT07) -0.205
TGM2 (UniProt A2A299) -0.085
TCF25 (UniProt Q9BQ70) -0.09
TBC1D25 (UniProt Q3MII6) 0.068

Compound: CN(CCOC1=CC=C(C=C1)C[C@H]2C(=O)NC(=O)S2)C3=CC=CC=N3 (racemic) [rosiglitazone]
Assay: as above
Procedure, shortened: as §1

log2 fold change, inactive:
TEX10 (UniProt Q9NXF1) 0.301
TEX2 isoform 2 (UniProt Q8IWB9) 0.046
TLE3 (UniProt Q04726) 0.043
TIGAR (UniProt Q9NQ88) 0.022
TFDP2 (UniProt Q14188) 0.166
TCF20 (UniProt Q9UGU0) 0.129
TDRD3 isoform 3 (UniProt Q9H7E2) -0.007
TFPI (UniProt P10646) -0.103
TBC1D2B (UniProt Q9UPU7) 0.144
TFE3 (UniProt P19532) 0.137
TBC1D9 (UniProt Q6ZT07) 0.141
TBC1D7 (UniProt Q9P0N9) 0.185
TCTN3 (UniProt Q6NUS6) 0
TBC1D25 (UniProt Q3MII6) -0.073

Compound: CN1C2=C(C3=C1C(=O)N(N=C3)CC4=CC(=CC=C4)N)SC(=C2)S(=O)C
Assay: as above
Procedure, shortened: as §1

log2 fold change, inactive:
TK1 (UniProt K7ERV3) -0.024
TEDC2 (UniProt Q7L2K0) 0.068
TEX2 isoform 2 (UniProt Q8IWB9) -0.084
TENM4 (UniProt Q6N022) 0.179
TDRD7 (UniProt Q8NHU6) -0.043
TEX30 (UniProt Q5JUR7) 0.046
TGDS (UniProt O95455) -0.031
TC2N (UniProt Q8N9U0) 0.073
TDRD15 (UniProt B5MCY1) 0.129
TFPI (UniProt P10646) 0.103
THAP9 (UniProt Q9H5L6) -0.039
TBC1D2B (UniProt Q9UPU7) 0.166
TBCK (UniProt Q8TEA7) -0.023
TBC1D9 (UniProt Q6ZT07) -0.103
TCF4 isoform 3 (UniProt P15884) -0.129
TGM2 (UniProt A2A299) -0.052
THEMIS2 (UniProt Q5TEJ8) -0.068
